According to article PMC11129471:
Results are given in words; binding and its absence hold for the method and conditions named. Binding seen in cells or lysates may run through a third protein. Some results given as binding are weak or reduced against the parent protein; the word gives no strength.

Protein sequences, listed by entry. Tags and fused reporters are not part of them.
UniProt Q9UKB1: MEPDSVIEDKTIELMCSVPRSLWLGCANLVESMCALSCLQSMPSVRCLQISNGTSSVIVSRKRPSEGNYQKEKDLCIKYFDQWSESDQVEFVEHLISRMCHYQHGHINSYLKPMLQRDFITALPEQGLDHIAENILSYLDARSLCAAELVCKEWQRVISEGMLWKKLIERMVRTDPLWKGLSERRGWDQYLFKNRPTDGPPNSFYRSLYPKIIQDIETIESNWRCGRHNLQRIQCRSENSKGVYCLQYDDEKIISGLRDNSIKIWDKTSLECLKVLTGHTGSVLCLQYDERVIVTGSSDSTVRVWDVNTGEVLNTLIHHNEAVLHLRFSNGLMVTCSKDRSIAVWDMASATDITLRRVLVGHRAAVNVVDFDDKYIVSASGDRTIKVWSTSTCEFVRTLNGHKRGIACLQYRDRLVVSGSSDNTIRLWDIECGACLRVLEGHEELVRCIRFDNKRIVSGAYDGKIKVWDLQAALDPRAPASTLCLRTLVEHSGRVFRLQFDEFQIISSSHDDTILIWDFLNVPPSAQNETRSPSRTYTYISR

Target: FBXW11 (UniProt Q9UKB1)
Assay: co-IP; human NPC lysate (25 mM Tris-HCl pH 7.5, 150 mM NaCl, 0.5% NP-40, protease and phosphatase inhibitors); protein agarose beads and primary antibodies; SDS-PAGE and blot

B1: TAK1 (protein, UniProt O43318 1-606)
chain: MSTASAASSSSSSSAGEMIEAPSQVLNFEEIDYKEIEVEEVVGRGAFGVVCKAKWRAKDVAIKQIESESERKAFIVELRQLSRVNHPNIVKLYGACLNPVCLVMEYAEGGSLYNVLHGAEPLPYYTAAHAMSWCLQCSQGVAYLHSMQPKALIHRDLKPPNLLLVAGGTVLKICDFGTACDIQTHMTNNKGSAAWMAPEVFEGSNYSEKCDVFSWGIILWEVITRRKPFDEIGGPAFRIMWAVHNGTRPPLIKNLPKPIESLMTRCWSKDPSQRPSMEEIVKIMTHLMRYFPGADEPLQYPCQYSDEGQSNSATSTGSFMDIASTNTSNKSDTNMEQVPATNDTIKRLESKLLKNQAKQQSESGRLSLGASRGSSVESLPPTSEGKRMSADMSEIEARIAATTAYSKPKRGHRKTASFGNILDVPEIVISGNGQPRRRSIQDLTVTGTEPGQVSSRSSSPSVRMITTSGPTSEKPTRSHPWTPDDSTDTNGSDNSIPMAYLTLDHQLQPLAPCPNSKESMAVFEQHCKMAQEYMKVQTEIALLLQRKQELVAELDQDEKDQQNTSRLVQEHKKLLDENKSLSTYYQQCKKQLEVIRSQQQKRQGTS
- binding: binds
